# Source: the supplement of paper PMC8728848
# The list shows a part of the results.
# Tests used:
# Test in all cases: glycan array binding signal (z-score within array); higher = stronger binding
# Conditions in all cases: glycan notation: IUPAC condensed, linker removed
# [1] = target: GlcNAc(b1-3)Gal(b1-4)GlcNAc(b1-3)Gal(b1-4)GlcNAc(b1-3)GalNAc
# Outline: (§1)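 Glycan array data came from 3228 arrays in the Consortium for Functional Glycomics database, and only arrays with an available protein sequence were kept. Glycan names were put into IUPAC-condensed notation, and columns mapping to the same glycan were averaged. The binding signal is a within-array Z-score, averaged across arrays of one protein sequence run at different concentrations or buffers and across linkers. A negative Z-score can be read as non-binding.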
# [2] = target: GlcNAc(b1-3)Gal(b1-4)GlcNAc(b1-3)GalNAc
# Outline: as §1
# [3] = target: GlcNAc(b1-3)Gal(b1-4)GlcNAc(b1-3)[GlcNAc(b1-3)Gal(b1-4)GlcNAc(b1-3)]GalNAc
# Outline: as §1
# [4] = target: GlcNAc(b1-3)Gal(b1-4)GlcNAc(b1-6)[Gal(b1-3)]GalNAc
# Outline: as §1
# [5] = target: GlcNAc(b1-3)Gal(b1-4)GlcNAc(b1-6)[GlcNAc(b1-3)Gal(b1-3)]GalNAc
# Outline: as §1
# [6] = target: GlcNAc(b1-3)Gal(b1-4)GlcNAc(b1-6)[GlcNAc(b1-3)]Gal(b1-4)GlcNAc
# Outline: as §1
# [7] = target: GlcNAc(b1-3)GalNAc
# Outline: as §1
# [8] = target: GlcNAc(b1-3)Man
# Outline: as §1
# [9] = target: GlcNAc(b1-3)[GlcNAc(b1-4)][GlcNAc(b1-6)]GlcNAc
# Outline: as §1
# [10] = target: GlcNAc(b1-3)[GlcNAc(b1-6)]Gal(b1-4)GlcNAc
# Outline: as §1
# [11] = target: GlcNAc(b1-3)[GlcNAc(b1-6)]GalNAc
# Outline: as §1
# [12] = target: GlcNAc(b1-4)Gal(b1-4)GlcNAc
# Outline: as §1
# [13] = target: GlcNAc(b1-4)GlcNAc
# Outline: as §1
# [14] = target: GlcNAc(b1-4)GlcNAc(b1-4)GlcNAc
# Outline: as §1
# [15] = target: GlcNAc(b1-4)GlcNAc(b1-4)GlcNAc(b1-4)GlcNAc(b1-4)GlcNAc
# Outline: as §1
# [16] = target: GlcNAc(b1-4)GlcNAc(b1-4)GlcNAc(b1-4)GlcNAc(b1-4)GlcNAc(b1-4)GlcNAc
# Outline: as §1
# [17] = target: GlcNAc(b1-4)[GlcNAc(b1-6)]GalNAc
# Outline: as §1
# [18] = target: GlcNAc(b1-6)Gal(b1-4)GlcNAc
# Outline: as §1
# [19] = target: GlcNAc(b1-6)GalNAc
# Outline: as §1
# [20] = target: GlcNAc6S(b1-3)Gal(b1-4)GlcNAc
# Outline: as §1
# [21] = target: Kdn(a2-3)Gal(b1-3)GalNAc
# Outline: as §1
# [22] = target: Kdn(a2-3)Gal(b1-3)GlcNAc
# Outline: as §1
# [23] = target: Kdn(a2-3)Gal(b1-4)Glc
# Outline: as §1
# [24] = target: Kdn(a2-3)Gal(b1-4)GlcNAc
# Outline: as §1
# [25] = target: Kdn(a2-3)Gal(b1-4)[Fuc(a1-3)]GlcNAc
# Outline: as §1
# [26] = target: Kdn(a2-6)Gal(b1-4)GlcNAc
# Outline: as §1
# [27] = target: Man(a1-2)Man(a1-2)Man(a1-3)Man
# Outline: as §1
# [28] = target: Man(a1-2)Man(a1-2)Man(a1-6)[Man(a1-3)]Man
# Outline: as §1
# [29] = target: Man(a1-2)Man(a1-3)Man
# Outline: as §1
# [30] = target: Man(a1-2)Man(a1-3)[Man(a1-2)Man(a1-6)]Man
# Outline: as §1
# [31] = target: Man(a1-2)Man(a1-3)[Man(a1-2)Man(a1-6)]Man(a1-6)[Man(a1-2)Man(a1-2)Man(a1-3)]Man
# Outline: as §1
# [32] = target: Man(a1-2)Man(a1-3)[Man(a1-2)Man(a1-6)]Man(a1-6)[Man(a1-2)Man(a1-2)Man(a1-3)]Man(b1-4)GlcNAc(b1-4)GlcNAc
# Outline: as §1
# [33] = target: Man(a1-2)Man(a1-3)[Man(a1-6)]Man(a1-6)[Man(a1-2)Man(a1-3)]Man(b1-4)GlcNAc(b1-4)GlcNAc
# Outline: as §1
# [34] = target: Man(a1-2)Man(a1-6)[Man(a1-3)]Man(a1-6)[Man(a1-2)Man(a1-2)Man(a1-3)]Man
# Outline: as §1
# [35] = target: Man(a1-2)Man(a1-6)[Man(a1-3)]Man(a1-6)[Man(a1-2)Man(a1-2)Man(a1-3)]Man(b1-4)GlcNAc(b1-4)GlcNAc
# Outline: as §1
# [36] = target: Man(a1-3)[Man(a1-6)]Man
# Outline: as §1
# [37] = target: Man(a1-3)[Man(a1-6)]Man(a1-6)[Man(a1-2)Man(a1-3)]Man(b1-4)GlcNAc(b1-4)GlcNAc
# Outline: as §1
# [38] = target: Man(a1-3)[Man(a1-6)]Man(a1-6)[Man(a1-3)]Man
# Outline: as §1
# [39] = target: Man(a1-3)[Man(a1-6)]Man(a1-6)[Man(a1-3)]Man(b1-4)GlcNAc(b1-4)GlcNAc
# Outline: as §1
# [40] = target: Man(a1-3)[Man(a1-6)]Man(b1-4)GlcNAc(b1-4)GlcNAc
# Outline: as §1
# [41] = target: Man(a1-3)[Man(a1-6)]Man(b1-4)GlcNAc(b1-4)[Fuc(a1-6)]GlcNAc
# Outline: as §1
# [42] = target: Man(a1-6)Man
# Outline: as §1
# [43] = target: Man(b1-4)GlcNAc
# Outline: as §1
# [44] = target: MurNAc(b1-4)GlcNAc
# Outline: as §1
# [45] = target: Neu5Ac(a2-3)Gal
# Outline: as §1
binder,measurement,setting,value
PX14375D-bvu-513-34-513 (Bacteroides vulgatus) (protein) TEDTFWKDETDFNLALTSCYTPLKNALNGGYYGTRGVMLRIARADEVDFRNDISDVYTVNRFTNSNTNSLTQGMFYQFYNALYRTNSIMQKLEEKKEQFSTDFQNSVKGECLFIRGFYLFQLAKEFKDAPLRLTASQSPSTFPLAKSSQADIWAQAKEDLKTAASLLPITNKIGKPTQGAAYAALGKIYVYEENWQEAINVLEPLTQNPYTYKLVEDFNWNFDDTHENNAESIFELLIEDVGGTDLWGDGENINSTQSNTRPKEYAAAEVGGWYEANPTQQIMDIFWKEKDKDGNFDYRARCSVAWDYEGCTYYQRPFREVFAQDKWKTYWILKYQNWKTQKDEPAPPKSFINERAIRYADVLLMLAEAYMNKGALDTSIGYINQIRRRANLNDYSGPITKEGVFEDLVHQRAIEFFVEGERFYDLRRWGLLEQTLKTCDDTRYKNYQTGKSDNINKFNYFPIPAKELDTNPLCTPSEGW,glycan array binding signal (z-score),[1],-0.787
same,glycan array binding signal (z-score),[2],1.06
same,glycan array binding signal (z-score),[3],-0.891
same,glycan array binding signal (z-score),[4],-0.274
same,glycan array binding signal (z-score),[5],0.929
same,glycan array binding signal (z-score),[6],-0.578
same,glycan array binding signal (z-score),[7],-0.787
same,glycan array binding signal (z-score),[8],0.196
same,glycan array binding signal (z-score),[9],-1.1
same,glycan array binding signal (z-score),[10],-0.517
same,glycan array binding signal (z-score),[11],-0.467
same,glycan array binding signal (z-score),[12],-0.613
same,glycan array binding signal (z-score),[13],0.164
same,glycan array binding signal (z-score),[14],0.257
same,glycan array binding signal (z-score),[15],-1.21
same,glycan array binding signal (z-score),[16],-0.078
same,glycan array binding signal (z-score),[17],-0.077
same,glycan array binding signal (z-score),[18],-0.889
same,glycan array binding signal (z-score),[19],0.355
same,glycan array binding signal (z-score),[20],-0.865
same,glycan array binding signal (z-score),[21],-0.481
same,glycan array binding signal (z-score),[22],-0.5
same,glycan array binding signal (z-score),[23],-0.365
same,glycan array binding signal (z-score),[24],-0.661
same,glycan array binding signal (z-score),[25],-0.888
same,glycan array binding signal (z-score),[26],0.143
same,glycan array binding signal (z-score),[27],-0.876
same,glycan array binding signal (z-score),[28],-1.09
same,glycan array binding signal (z-score),[29],-1
same,glycan array binding signal (z-score),[30],-0.686
same,glycan array binding signal (z-score),[31],-0.479
same,glycan array binding signal (z-score),[32],-0.156
same,glycan array binding signal (z-score),[33],-0.571
same,glycan array binding signal (z-score),[34],-0.845
same,glycan array binding signal (z-score),[35],0.184
same,glycan array binding signal (z-score),[36],0.285
same,glycan array binding signal (z-score),[37],-0.298
same,glycan array binding signal (z-score),[38],0.769
same,glycan array binding signal (z-score),[39],-0.125
same,glycan array binding signal (z-score),[40],0.478
same,glycan array binding signal (z-score),[41],-0.592
same,glycan array binding signal (z-score),[42],0.399
same,glycan array binding signal (z-score),[43],0.571
same,glycan array binding signal (z-score),[44],0.052
same,glycan array binding signal (z-score),[45],0.476

# Some of the entries above, reformatted:
binder	measurement	setting	value
PX14375D-bvu-513-34-513 (Bacteroides vulgatus) (protein) TEDTFWKDETDFNLALTSCYTPLKNALNGGYYGTRGVMLRIARADEVDFRNDISDVYTVNRFTNSNTNSLTQGMFYQFYNALYRTNSIMQKLEEKKEQFSTDFQNSVKGECLFIRGFYLFQLAKEFKDAPLRLTASQSPSTFPLAKSSQADIWAQAKEDLKTAASLLPITNKIGKPTQGAAYAALGKIYVYEENWQEAINVLEPLTQNPYTYKLVEDFNWNFDDTHENNAESIFELLIEDVGGTDLWGDGENINSTQSNTRPKEYAAAEVGGWYEANPTQQIMDIFWKEKDKDGNFDYRARCSVAWDYEGCTYYQRPFREVFAQDKWKTYWILKYQNWKTQKDEPAPPKSFINERAIRYADVLLMLAEAYMNKGALDTSIGYINQIRRRANLNDYSGPITKEGVFEDLVHQRAIEFFVEGERFYDLRRWGLLEQTLKTCDDTRYKNYQTGKSDNINKFNYFPIPAKELDTNPLCTPSEGW	glycan array binding signal (z-score)	[27]	-0.876
same	glycan array binding signal (z-score)	[28]	-1.09
same	glycan array binding signal (z-score)	[29]	-1
